Assay results as given in publication PMC5216933.

Sequences of proteins named here, by UniProt entry; tags and fusion partners are left off.
UniProt Q04206: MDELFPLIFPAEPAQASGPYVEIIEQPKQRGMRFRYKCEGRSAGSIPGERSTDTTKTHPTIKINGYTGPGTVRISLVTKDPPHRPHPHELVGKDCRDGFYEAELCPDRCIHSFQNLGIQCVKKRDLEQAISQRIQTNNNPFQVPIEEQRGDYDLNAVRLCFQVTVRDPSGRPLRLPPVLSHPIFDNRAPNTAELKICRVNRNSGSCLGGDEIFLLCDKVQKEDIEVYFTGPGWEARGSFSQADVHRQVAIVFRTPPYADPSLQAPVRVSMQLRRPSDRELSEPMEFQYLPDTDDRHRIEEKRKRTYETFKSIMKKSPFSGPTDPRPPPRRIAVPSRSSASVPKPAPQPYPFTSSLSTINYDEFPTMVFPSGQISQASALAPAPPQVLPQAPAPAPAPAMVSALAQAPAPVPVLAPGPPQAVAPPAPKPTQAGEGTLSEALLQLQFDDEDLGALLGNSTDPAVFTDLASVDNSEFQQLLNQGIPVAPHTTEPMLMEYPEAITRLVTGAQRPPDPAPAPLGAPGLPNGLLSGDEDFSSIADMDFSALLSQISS

Target: woodchuck metastatic tumor antigen 1 (wk-MTA1), flag-tagged (woodchuck (Marmota monax)) (UniProt M9R048)
Test: co-IP; 293T cells transfected with WHx-EGFP and flag-wk-MTA1; whole-cell lysates (RIPA: 120 mM NaCl, 50 mM Tris pH 7.5, 5 mM EDTA, 0.5% NP-40) immunoprecipitated with monoclonal anti-GFP or anti-FLAG antibody overnight at 4°C, protein-G sepharose, immunoblot

p65 of NF-κB (from UniProt Q04206 1-551)
binding: binds

These are yes or no findings as the source states them, for the method shown. Binding seen in cells or lysates may run through a third protein. Binding can be weak; no strength is given.
